{"source": "patent US20250164464A1", "about": "“LIVER ORGANOID-DERIVED CULTURED HEPATOCYTES” (OSAKA UNIVERSITY, priority 2022, published 2025)", "tested_on": "hepatic organoid cells", "assay": "Screening of monolayer culture conditions, ninth day of culture, quantitative RT-PCR (Example 4)", "format": "cell-based, human", "conditions": "EMTi and Dex (10 mM), versus sixth day of culture (=1.0)", "description": "The medium was replaced with a new one on the third day of the culture, and the cells were differentiated with the HCM™ medium having added thereto the EMTi and FGF19 (100 ng/mL) until the sixth day of the culture.\nThe respective gene expression levels of ALB and CYP3A4 serving as liver cell markers after 9 days of two-dimensional culture were analyzed by a quantitative RT-PCR method.\nThe respective gene expression levels of ALB and CYP3A4 were measured by a quantitative RT-PCR method for the respective cells after their culture. A gene expression level when the hepatic organoid cells were cultured only with the HCM™ medium having added thereto the above-mentioned EMTi was defined as a vehicle. Comparison was performed while the gene expression level of ALB of the cells cultured with the HCM™ medium having added thereto the EMTi and FGF19 (100 ng/mL) on the sixth day of the culture was defined as 1.0.", "note": "At least one compound was matched to its structure with a doubt left.", "data": [{"smiles": "C[C@@H]1C[C@H]2[C@@H]3CCC4=CC(=O)C=C[C@]4(C)[C@@]3(F)[C@@H](O)C[C@]2(C)[C@@]1(O)C(=O)CO", "note": "[Dex, dexamethasone, reference compound]", "values": [{"measurement": "gene expression level of ALB", "value": "increasing tendency"}]}]}
